{"sequences": {"note": "Amino acid sequences for entries named in this document (tags omitted).", "UniProt Q13838": "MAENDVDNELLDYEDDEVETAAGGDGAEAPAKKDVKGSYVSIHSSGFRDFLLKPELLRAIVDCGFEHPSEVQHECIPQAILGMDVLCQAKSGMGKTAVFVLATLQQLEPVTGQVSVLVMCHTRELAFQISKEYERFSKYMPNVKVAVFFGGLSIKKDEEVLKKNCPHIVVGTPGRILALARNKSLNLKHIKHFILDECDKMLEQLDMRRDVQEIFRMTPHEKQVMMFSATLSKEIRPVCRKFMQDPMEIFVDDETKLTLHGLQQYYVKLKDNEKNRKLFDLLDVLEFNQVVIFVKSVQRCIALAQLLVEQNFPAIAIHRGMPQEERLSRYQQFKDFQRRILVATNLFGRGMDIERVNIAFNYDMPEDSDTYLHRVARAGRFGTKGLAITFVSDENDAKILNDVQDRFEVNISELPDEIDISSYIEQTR"}, "source": "paper PMC3141038", "key": {"UIF-6xHis": {"target": "T1, UIF-6xHis (UniProt Q96QD9)", "T1 sequence": "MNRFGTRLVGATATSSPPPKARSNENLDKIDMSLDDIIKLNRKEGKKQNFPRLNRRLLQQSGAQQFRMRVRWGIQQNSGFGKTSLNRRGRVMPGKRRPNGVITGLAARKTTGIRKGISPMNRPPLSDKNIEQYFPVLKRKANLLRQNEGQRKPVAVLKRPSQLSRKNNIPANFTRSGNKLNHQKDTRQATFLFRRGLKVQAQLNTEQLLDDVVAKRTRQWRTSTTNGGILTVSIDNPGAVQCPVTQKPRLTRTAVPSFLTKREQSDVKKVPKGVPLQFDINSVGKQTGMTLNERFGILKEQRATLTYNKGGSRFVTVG", "assay": "pull-down; both purified"}, "UIF-FLAG [1]": {"target": "T2, UIF-FLAG (UniProt Q96QD9)", "T2 sequence": "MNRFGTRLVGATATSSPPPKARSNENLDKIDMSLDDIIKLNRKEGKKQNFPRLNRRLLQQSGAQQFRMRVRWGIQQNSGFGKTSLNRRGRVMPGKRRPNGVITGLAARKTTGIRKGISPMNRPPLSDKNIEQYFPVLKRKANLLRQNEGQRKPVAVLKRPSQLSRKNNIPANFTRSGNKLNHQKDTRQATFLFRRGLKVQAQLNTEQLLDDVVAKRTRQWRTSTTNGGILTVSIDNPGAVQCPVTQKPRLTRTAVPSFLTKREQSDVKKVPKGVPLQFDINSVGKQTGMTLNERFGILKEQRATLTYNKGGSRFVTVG", "assay": "co-IP; as a3 but in the presence of RNase"}, "UIF-FLAG [2]": {"target": "T2, UIF-FLAG", "assay": "co-IP; 293T cells transfected with pUIF-Flag and pEGFP or pORF57GFP; immunoprecipitation with polyclonal Flag-specific antibody, no RNase; GFP, FLAG and Aly western blots"}, "[3]": {"target": "T3, GST-ORF57 (KSHV ORF57 fused to GST) (Kaposi's sarcoma-associated herpesvirus (KSHV)) (UniProt Q2HR75)", "T3 sequence": "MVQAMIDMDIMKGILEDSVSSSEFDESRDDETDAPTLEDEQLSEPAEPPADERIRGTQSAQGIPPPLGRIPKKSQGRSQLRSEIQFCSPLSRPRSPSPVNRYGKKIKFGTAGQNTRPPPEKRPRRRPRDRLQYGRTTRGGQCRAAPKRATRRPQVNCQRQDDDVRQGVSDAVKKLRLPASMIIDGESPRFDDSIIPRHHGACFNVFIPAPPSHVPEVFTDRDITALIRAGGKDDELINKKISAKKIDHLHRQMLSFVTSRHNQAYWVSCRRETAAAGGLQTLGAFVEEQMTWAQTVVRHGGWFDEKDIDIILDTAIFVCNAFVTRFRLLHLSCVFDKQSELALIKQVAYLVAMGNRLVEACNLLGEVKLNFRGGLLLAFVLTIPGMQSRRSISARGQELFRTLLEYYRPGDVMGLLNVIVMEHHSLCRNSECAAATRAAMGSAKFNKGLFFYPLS", "assay": "pull-down; GST fusion proteins (equal amounts of total protein) immobilised to glutathione agarose beads, incubated with lysates of 293T cells transfected with pUIF-Flag; FLAG western blot; only the target purified"}, "GST-UAP56 [4]": {"target": "GST-UAP56 (UniProt Q13838)", "assay": "pull-down; GST fusion proteins (equal amounts of total protein) immobilised to glutathione agarose beads, incubated with lysates of 293T cells transfected with pUIF-Flag; FLAG western blot; only the target purified"}, "[5]": {"target": "T4, ORF57GFP (Kaposi's sarcoma-associated herpesvirus (KSHV)) (UniProt Q2HR75)", "T4 sequence": "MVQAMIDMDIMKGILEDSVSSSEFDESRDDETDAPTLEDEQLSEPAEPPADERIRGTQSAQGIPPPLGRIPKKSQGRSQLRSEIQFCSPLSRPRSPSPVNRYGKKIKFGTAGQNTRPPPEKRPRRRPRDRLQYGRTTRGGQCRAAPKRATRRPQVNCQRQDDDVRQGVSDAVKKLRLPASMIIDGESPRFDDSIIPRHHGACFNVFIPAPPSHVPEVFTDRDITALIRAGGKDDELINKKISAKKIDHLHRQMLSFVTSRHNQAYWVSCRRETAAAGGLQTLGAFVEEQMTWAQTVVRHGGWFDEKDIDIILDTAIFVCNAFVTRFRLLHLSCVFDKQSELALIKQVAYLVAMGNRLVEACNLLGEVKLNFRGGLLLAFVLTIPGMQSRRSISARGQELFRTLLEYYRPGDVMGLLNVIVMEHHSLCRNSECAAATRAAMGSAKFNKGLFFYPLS", "assay": "co-IP; dose-dependent co-IP: 293T cells cotransfected with 0.5 ug pORF57GFP, 0.5 ug of pAly-myc or pUIF-Flag and increasing amounts (0, 0.1, 0.5, 0.8, 1.2 ug) of the other; GFP-TRAP-Affinity agarose beads; Myc or Flag western blot"}, "[6]": {"target": "T4, ORF57GFP (Kaposi's sarcoma-associated herpesvirus (KSHV))", "assay": "co-IP; 293T cells cotransfected with pUIF-Flag and pEGFP, pUAP56-myc, pORF57GFP or pORF57PmutGFP; immunoprecipitation with GFP- or UAP56-specific antibodies; FLAG western blot"}, "[7]": {"target": "T5, KSHV ORF57 (endogenous viral protein in reactivated BCBL-1 cells) (Kaposi's sarcoma-associated herpesvirus (KSHV)) (UniProt Q2HR75)", "T5 sequence": "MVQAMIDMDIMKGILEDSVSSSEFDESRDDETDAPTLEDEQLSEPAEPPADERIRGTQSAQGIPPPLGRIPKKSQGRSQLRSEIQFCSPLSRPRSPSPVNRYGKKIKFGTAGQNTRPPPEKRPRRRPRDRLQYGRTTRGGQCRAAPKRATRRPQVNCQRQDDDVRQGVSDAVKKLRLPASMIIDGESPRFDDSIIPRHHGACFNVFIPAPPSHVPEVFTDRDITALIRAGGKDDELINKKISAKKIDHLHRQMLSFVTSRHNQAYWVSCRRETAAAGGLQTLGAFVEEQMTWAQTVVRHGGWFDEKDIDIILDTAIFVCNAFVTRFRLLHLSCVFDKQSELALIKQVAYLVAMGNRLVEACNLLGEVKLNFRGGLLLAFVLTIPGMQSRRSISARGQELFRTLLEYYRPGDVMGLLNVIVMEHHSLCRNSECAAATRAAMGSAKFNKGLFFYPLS", "assay": "co-IP; BCBL-1 cells reactivated with TPA (20 ng/ml); immunoprecipitation with ORF57- or UIF-specific antibodies, reciprocal western blots; endogenous proteins"}, "[8]": {"target": "T3, GST-ORF57 (KSHV ORF57 fused to GST) (Kaposi's sarcoma-associated herpesvirus (KSHV))", "assay": "pull-down; competitive GST pull-down: GST-ORF57 on beads with a constant amount (1 µg) of Aly-His or UIF-His and increasing amounts (0, 0.5, 1, 2, 3 µg) of the other; both purified"}, "[9]": {"target": "T3, GST-ORF57 (KSHV ORF57 fused to GST) (Kaposi's sarcoma-associated herpesvirus (KSHV))", "assay": "pull-down; both purified"}, "GST-UAP56 [10]": {"target": "GST-UAP56 (UniProt Q13838)", "assay": "pull-down; both purified"}}, "note": "No constants are given. Whether binding was seen depends on the method and setting. For some assays here: In cells and extracts the contact can be indirect. Some results given as binding are weak or reduced against the parent protein; the word gives no strength. For some assays here: Tags and fused reporters may be left off the sequences shown."}
{"binder": "ORF57-6xHis (protein, UniProt Q2HR75 1-455) MVQAMIDMDIMKGILEDSVSSSEFDESRDDETDAPTLEDEQLSEPAEPPADERIRGTQSAQGIPPPLGRIPKKSQGRSQLRSEIQFCSPLSRPRSPSPVNRYGKKIKFGTAGQNTRPPPEKRPRRRPRDRLQYGRTTRGGQCRAAPKRATRRPQVNCQRQDDDVRQGVSDAVKKLRLPASMIIDGESPRFDDSIIPRHHGACFNVFIPAPPSHVPEVFTDRDITALIRAGGKDDELINKKISAKKIDHLHRQMLSFVTSRHNQAYWVSCRRETAAAGGLQTLGAFVEEQMTWAQTVVRHGGWFDEKDIDIILDTAIFVCNAFVTRFRLLHLSCVFDKQSELALIKQVAYLVAMGNRLVEACNLLGEVKLNFRGGLLLAFVLTIPGMQSRRSISARGQELFRTLLEYYRPGDVMGLLNVIVMEHHSLCRNSECAAATRAAMGSAKFNKGLFFYPLS", "values": [{"measurement": "binding", "setting": "UIF-6xHis", "result": "binds"}]}
{"binder": "ORF57GFP (protein, UniProt Q2HR75 1-455) MVQAMIDMDIMKGILEDSVSSSEFDESRDDETDAPTLEDEQLSEPAEPPADERIRGTQSAQGIPPPLGRIPKKSQGRSQLRSEIQFCSPLSRPRSPSPVNRYGKKIKFGTAGQNTRPPPEKRPRRRPRDRLQYGRTTRGGQCRAAPKRATRRPQVNCQRQDDDVRQGVSDAVKKLRLPASMIIDGESPRFDDSIIPRHHGACFNVFIPAPPSHVPEVFTDRDITALIRAGGKDDELINKKISAKKIDHLHRQMLSFVTSRHNQAYWVSCRRETAAAGGLQTLGAFVEEQMTWAQTVVRHGGWFDEKDIDIILDTAIFVCNAFVTRFRLLHLSCVFDKQSELALIKQVAYLVAMGNRLVEACNLLGEVKLNFRGGLLLAFVLTIPGMQSRRSISARGQELFRTLLEYYRPGDVMGLLNVIVMEHHSLCRNSECAAATRAAMGSAKFNKGLFFYPLS", "values": [{"measurement": "binding", "setting": "UIF-FLAG [1]", "result": "binds"}, {"measurement": "binding", "setting": "UIF-FLAG [2]", "result": "binds"}]}
{"binder": "UIF-FLAG (protein, UniProt Q96QD9 1-318) MNRFGTRLVGATATSSPPPKARSNENLDKIDMSLDDIIKLNRKEGKKQNFPRLNRRLLQQSGAQQFRMRVRWGIQQNSGFGKTSLNRRGRVMPGKRRPNGVITGLAARKTTGIRKGISPMNRPPLSDKNIEQYFPVLKRKANLLRQNEGQRKPVAVLKRPSQLSRKNNIPANFTRSGNKLNHQKDTRQATFLFRRGLKVQAQLNTEQLLDDVVAKRTRQWRTSTTNGGILTVSIDNPGAVQCPVTQKPRLTRTAVPSFLTKREQSDVKKVPKGVPLQFDINSVGKQTGMTLNERFGILKEQRATLTYNKGGSRFVTVG", "values": [{"measurement": "binding", "setting": "[3]", "result": "binds"}, {"measurement": "binding", "setting": "GST-UAP56 [4]", "result": "binds"}, {"measurement": "binding", "setting": "[5]", "result": "binds"}, {"measurement": "binding", "setting": "[6]", "result": "binds"}]}
{"binder": "UIF (endogenous, BCBL-1) (protein, UniProt Q96QD9 1-318) MNRFGTRLVGATATSSPPPKARSNENLDKIDMSLDDIIKLNRKEGKKQNFPRLNRRLLQQSGAQQFRMRVRWGIQQNSGFGKTSLNRRGRVMPGKRRPNGVITGLAARKTTGIRKGISPMNRPPLSDKNIEQYFPVLKRKANLLRQNEGQRKPVAVLKRPSQLSRKNNIPANFTRSGNKLNHQKDTRQATFLFRRGLKVQAQLNTEQLLDDVVAKRTRQWRTSTTNGGILTVSIDNPGAVQCPVTQKPRLTRTAVPSFLTKREQSDVKKVPKGVPLQFDINSVGKQTGMTLNERFGILKEQRATLTYNKGGSRFVTVG", "values": [{"measurement": "binding", "setting": "[7]", "result": "binds"}]}
{"binder": "UIF-6xHis (protein, UniProt Q96QD9 1-318) MNRFGTRLVGATATSSPPPKARSNENLDKIDMSLDDIIKLNRKEGKKQNFPRLNRRLLQQSGAQQFRMRVRWGIQQNSGFGKTSLNRRGRVMPGKRRPNGVITGLAARKTTGIRKGISPMNRPPLSDKNIEQYFPVLKRKANLLRQNEGQRKPVAVLKRPSQLSRKNNIPANFTRSGNKLNHQKDTRQATFLFRRGLKVQAQLNTEQLLDDVVAKRTRQWRTSTTNGGILTVSIDNPGAVQCPVTQKPRLTRTAVPSFLTKREQSDVKKVPKGVPLQFDINSVGKQTGMTLNERFGILKEQRATLTYNKGGSRFVTVG", "values": [{"measurement": "binding", "setting": "[8]", "result": "binds"}, {"measurement": "binding", "setting": "[9]", "result": "binds"}, {"measurement": "binding", "setting": "GST-UAP56 [10]", "result": "binds"}]}
